These are yes or no findings as the source states them, for the method shown. In cells and extracts the contact can be indirect. Some results given as binding are weak or reduced against the parent protein; the word gives no strength. Sequences can lack the tags named with a protein.

Sequences of proteins named here, by UniProt entry; tags and fusion partners are left off. Residues count along the entry.
UniProt Q92673, residues 82-2214: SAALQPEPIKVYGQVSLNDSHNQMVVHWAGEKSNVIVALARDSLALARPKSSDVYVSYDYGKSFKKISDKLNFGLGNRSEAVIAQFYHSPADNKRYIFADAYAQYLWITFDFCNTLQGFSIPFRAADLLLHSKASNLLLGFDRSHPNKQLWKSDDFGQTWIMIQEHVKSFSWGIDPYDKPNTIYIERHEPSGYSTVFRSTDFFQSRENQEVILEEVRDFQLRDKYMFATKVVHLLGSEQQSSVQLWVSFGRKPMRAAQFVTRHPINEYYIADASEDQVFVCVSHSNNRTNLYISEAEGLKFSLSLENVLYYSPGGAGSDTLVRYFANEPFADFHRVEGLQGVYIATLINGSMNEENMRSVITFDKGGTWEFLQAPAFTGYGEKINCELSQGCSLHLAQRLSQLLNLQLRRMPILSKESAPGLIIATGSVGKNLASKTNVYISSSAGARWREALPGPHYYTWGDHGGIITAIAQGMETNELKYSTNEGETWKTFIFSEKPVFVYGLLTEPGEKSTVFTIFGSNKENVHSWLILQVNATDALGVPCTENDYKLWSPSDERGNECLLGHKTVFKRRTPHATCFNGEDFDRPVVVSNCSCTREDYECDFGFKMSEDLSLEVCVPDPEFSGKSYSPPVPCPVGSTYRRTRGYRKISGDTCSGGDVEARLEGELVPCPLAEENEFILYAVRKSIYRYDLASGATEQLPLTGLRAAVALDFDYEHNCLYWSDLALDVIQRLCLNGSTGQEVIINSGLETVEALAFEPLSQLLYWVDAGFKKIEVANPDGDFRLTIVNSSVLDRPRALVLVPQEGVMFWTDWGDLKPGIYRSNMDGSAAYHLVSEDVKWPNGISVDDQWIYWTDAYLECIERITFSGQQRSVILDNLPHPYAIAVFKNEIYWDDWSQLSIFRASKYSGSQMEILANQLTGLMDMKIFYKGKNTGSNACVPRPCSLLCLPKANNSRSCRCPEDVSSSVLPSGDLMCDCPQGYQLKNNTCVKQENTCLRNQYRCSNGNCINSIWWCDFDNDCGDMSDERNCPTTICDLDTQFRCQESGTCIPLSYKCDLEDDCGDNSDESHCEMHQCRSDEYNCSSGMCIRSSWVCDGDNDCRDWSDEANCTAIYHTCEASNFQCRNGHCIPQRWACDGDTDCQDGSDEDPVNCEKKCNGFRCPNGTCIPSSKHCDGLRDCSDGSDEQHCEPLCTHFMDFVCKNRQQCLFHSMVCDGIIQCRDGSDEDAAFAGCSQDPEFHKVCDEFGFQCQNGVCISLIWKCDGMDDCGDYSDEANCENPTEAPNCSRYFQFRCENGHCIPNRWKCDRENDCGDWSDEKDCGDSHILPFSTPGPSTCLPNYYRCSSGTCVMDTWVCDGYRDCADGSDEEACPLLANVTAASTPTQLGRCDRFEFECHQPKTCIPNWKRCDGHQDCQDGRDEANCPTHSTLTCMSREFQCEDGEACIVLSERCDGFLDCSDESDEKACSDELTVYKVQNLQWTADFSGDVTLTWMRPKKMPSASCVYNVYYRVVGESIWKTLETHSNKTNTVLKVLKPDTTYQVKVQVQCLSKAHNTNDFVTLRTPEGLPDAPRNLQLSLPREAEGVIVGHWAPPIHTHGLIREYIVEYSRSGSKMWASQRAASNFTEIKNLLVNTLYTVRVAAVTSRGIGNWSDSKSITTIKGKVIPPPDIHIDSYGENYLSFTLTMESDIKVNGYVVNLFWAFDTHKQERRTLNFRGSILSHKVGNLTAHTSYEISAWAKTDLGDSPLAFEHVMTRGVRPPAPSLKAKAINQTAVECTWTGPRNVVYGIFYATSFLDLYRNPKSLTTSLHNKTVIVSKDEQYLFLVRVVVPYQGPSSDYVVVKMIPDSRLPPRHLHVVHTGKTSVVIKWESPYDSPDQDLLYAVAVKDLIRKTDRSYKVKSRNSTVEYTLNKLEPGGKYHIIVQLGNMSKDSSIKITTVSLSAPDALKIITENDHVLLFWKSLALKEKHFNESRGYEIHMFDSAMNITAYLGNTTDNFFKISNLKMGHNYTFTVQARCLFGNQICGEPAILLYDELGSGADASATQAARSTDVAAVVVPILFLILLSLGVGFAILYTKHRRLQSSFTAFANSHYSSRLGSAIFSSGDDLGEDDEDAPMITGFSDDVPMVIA

Test [1] has as its target T1, N-terminally V5-tagged full-length LRP10 (low-density lipoprotein receptor-related protein 10) (human) (UniProt Q7Z4F1).
T1 sequence: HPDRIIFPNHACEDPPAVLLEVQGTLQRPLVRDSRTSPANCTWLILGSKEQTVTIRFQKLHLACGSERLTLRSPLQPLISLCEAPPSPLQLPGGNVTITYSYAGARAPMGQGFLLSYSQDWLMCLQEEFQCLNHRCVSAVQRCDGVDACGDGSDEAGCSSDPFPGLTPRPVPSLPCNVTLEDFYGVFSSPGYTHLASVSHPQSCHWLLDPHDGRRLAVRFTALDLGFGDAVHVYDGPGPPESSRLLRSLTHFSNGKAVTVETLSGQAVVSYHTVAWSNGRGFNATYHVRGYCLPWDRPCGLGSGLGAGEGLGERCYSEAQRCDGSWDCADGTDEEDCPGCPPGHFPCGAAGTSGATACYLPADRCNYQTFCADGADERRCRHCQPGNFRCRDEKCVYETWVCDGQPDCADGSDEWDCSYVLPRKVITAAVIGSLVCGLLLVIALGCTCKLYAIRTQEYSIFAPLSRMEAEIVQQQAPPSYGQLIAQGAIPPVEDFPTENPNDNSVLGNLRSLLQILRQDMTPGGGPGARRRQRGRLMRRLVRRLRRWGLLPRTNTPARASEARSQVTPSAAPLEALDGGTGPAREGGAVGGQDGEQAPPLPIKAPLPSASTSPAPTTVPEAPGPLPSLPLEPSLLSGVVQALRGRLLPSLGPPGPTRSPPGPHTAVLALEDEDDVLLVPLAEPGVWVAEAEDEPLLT
Briefly: co-IP; HEK293T cells transfected with V5-LRP10 and SORL1 constructs, lysed after 48 h; precleared lysate (400 ug) incubated overnight at 4 C with antibody-loaded Protein G magnetic beads (mouse anti-SORL1 or anti-LRP10; mouse IgG as negative control); washes with 50 mM Tris-Cl pH 7.4, 0.5 M NaCl, 0.05% TWEEN 20, 0.05% IGEPAL CA-630; Western blot; LRP10 KO cells with SORL1 alone as control.

Test [2] concerns the target untagged full-length SORL1 (sortilin-related receptor 1) (human) (UniProt Q92673). The description is as above.

On to “untagged full-length SORL1 (sortilin-related receptor 1) (from UniProt Q92673 82-2214)”, for which the binding entry in test [1] is “binds”.

B1: N-terminally V5-tagged full-length LRP10 (low-density lipoprotein receptor-related protein 10) (receptor, UniProt Q7Z4F1 17-713)
chain: HPDRIIFPNHACEDPPAVLLEVQGTLQRPLVRDSRTSPANCTWLILGSKEQTVTIRFQKLHLACGSERLTLRSPLQPLISLCEAPPSPLQLPGGNVTITYSYAGARAPMGQGFLLSYSQDWLMCLQEEFQCLNHRCVSAVQRCDGVDACGDGSDEAGCSSDPFPGLTPRPVPSLPCNVTLEDFYGVFSSPGYTHLASVSHPQSCHWLLDPHDGRRLAVRFTALDLGFGDAVHVYDGPGPPESSRLLRSLTHFSNGKAVTVETLSGQAVVSYHTVAWSNGRGFNATYHVRGYCLPWDRPCGLGSGLGAGEGLGERCYSEAQRCDGSWDCADGTDEEDCPGCPPGHFPCGAAGTSGATACYLPADRCNYQTFCADGADERRCRHCQPGNFRCRDEKCVYETWVCDGQPDCADGSDEWDCSYVLPRKVITAAVIGSLVCGLLLVIALGCTCKLYAIRTQEYSIFAPLSRMEAEIVQQQAPPSYGQLIAQGAIPPVEDFPTENPNDNSVLGNLRSLLQILRQDMTPGGGPGARRRQRGRLMRRLVRRLRRWGLLPRTNTPARASEARSQVTPSAAPLEALDGGTGPAREGGAVGGQDGEQAPPLPIKAPLPSASTSPAPTTVPEAPGPLPSLPLEPSLLSGVVQALRGRLLPSLGPPGPTRSPPGPHTAVLALEDEDDVLLVPLAEPGVWVAEAEDEPLLT
Turning to B1, in test [2], the binding entry is “binds”.

These data come from publication PMC8217053.
